# Results are given in words; binding and its absence hold for the method and conditions named. Some results given as binding are weak or reduced against the parent protein; the word gives no strength.
# Protein sequences, listed by entry. Tags and fused reporters are not part of them. Lines headed by an entry give the natural chain unless they say otherwise; changes in a name come on top. Residues count along the entry.
# UniProt Q9NNX6, residues 62-404: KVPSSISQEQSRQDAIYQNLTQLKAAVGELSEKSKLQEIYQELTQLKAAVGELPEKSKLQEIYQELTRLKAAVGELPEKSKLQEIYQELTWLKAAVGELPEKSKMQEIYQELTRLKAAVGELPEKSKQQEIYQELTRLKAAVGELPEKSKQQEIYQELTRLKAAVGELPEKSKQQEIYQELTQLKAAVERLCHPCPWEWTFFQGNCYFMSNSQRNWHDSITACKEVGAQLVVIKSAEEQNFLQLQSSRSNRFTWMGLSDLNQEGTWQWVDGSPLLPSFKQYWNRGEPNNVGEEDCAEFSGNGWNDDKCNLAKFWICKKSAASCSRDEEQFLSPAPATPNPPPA
# UniProt B3EWN9: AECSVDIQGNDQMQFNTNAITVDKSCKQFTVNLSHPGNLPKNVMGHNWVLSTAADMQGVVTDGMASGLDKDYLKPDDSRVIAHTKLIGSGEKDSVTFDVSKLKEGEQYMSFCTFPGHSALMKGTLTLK
# UniProt P13591, residues 20-718: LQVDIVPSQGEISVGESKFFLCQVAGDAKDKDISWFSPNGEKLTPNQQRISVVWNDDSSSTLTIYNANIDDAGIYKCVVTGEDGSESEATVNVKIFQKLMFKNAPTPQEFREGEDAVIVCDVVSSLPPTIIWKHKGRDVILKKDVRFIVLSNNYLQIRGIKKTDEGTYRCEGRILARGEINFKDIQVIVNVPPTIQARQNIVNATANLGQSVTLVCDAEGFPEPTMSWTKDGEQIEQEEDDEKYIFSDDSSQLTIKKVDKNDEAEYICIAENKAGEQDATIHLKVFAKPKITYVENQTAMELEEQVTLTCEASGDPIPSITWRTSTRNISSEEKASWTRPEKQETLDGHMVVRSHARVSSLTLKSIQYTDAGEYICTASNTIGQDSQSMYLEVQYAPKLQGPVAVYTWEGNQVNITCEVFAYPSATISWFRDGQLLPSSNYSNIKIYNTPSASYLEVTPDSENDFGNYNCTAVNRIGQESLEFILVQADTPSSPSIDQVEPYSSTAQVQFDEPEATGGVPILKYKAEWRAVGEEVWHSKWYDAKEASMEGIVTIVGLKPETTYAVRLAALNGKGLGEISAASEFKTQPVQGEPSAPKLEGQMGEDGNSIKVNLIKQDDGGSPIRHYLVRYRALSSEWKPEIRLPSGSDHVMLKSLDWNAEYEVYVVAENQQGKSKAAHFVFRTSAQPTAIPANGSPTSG
# B1: ICAM-3 (receptor, UniProt P32942 30-485, looked up)
# chain: QEFLLRVEPQNPVLSAGGSLFVNCSTDCPSSEKIALETSLSKELVASGMGWAAFNLSNVTGNSRILCSVYCNGSQITGSSNITVYRLPERVELAPLPPWQPVGQNFTLRCQVEDGSPRTSLTVVLLRWEEELSRQPAVEEPAEVTATVLASRDDHGAPFSCRTELDMQPQGLGLFVNTSAPRQLRTFVLPVTPPRLVAPRFLEVETSWPVDCTLDGLFPASEAQVYLALGDQMLNATVMNHGDTLTATATATARADQEGAREIVCNVTLGGERREARENLTVFSFLGPIVNLSEPTAHEGSTVTVSCMAGARVQVTLDGVPAAAPGQPAQLQLNATESDDGRSFFCSATLEVDGEFLHRNSSVQLRVLYGPKIDRATCPQHLKWKDKTRHVLQCQARGNPYPELRCLKEGSSREVPVGIPFFVNVTHNGTYQCQASSSRGKYTLVVVMDIEAGSSH
# Legend:
# [1] = target: DC-SIGN (DC-specific intercellular adhesion molecule 3-grabbing nonintegrin) (UniProt Q9NNX6); test: SPR, DC-SIGN immobilised on sensor chip
# [2] = target: azurin from Pseudomonas aeruginosa (Pseudomonas aeruginosa) (UniProt P00282); test: SPR, azurin immobilised on CM5 chip
# [3] = target: T1, ICAM-3 (UniProt P32942); test: SPR
# T1 sequence (looked up): B1 chain
Molecule,binding [1],binding [2],binding [3]
GST-Azu 36-89 (from UniProt B3EWN9 36-89),binds,–,–
NCAM (from UniProt P13591 20-718) (receptor),–,binds,–
azurin from Pseudomonas aeruginosa (from UniProt P00282 21-148),binds,–,binds
B1,binds,binds,–
